Data as given in PubChem BioAssay AID602196 (INSERM, 2012)

Purpose: 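Genes whose knock-down alters cisplatin killing of lung cancer cells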
Cell system: human A549 lung cancer cells
Reagents: siRNA pair against human genes
Time to read-out: 48 h transfection before cisplatin; time from cisplatin to read-out not stated
Conditions: cisplatin at a dose killing half of control-siRNA cells; exact dose and duration not given
Measurement: 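Cisplatin cell death as a shift from the 50% death seen with control siRNA; siRNAs toxic or growth-blocking alone scored 0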
Scale: two-siRNA summed score (-2 to +2): higher = both siRNAs protect from cisplatin killing; -2 means both sensitise; mean protection from cisplatin (shift in death) and protection from cisplatin (shift in death), siRNA C and protection from cisplatin (shift in death), siRNA D: higher = protection from cisplatin killing
Active means: 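siRNAs harmful alone (LDH or WST-1) get 0; others get +1 for less and -1 for more cisplatin killing; genes are active when the two siRNAs give the same sign, summing to ±2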
Meaning of the calls: active = both siRNAs shift cisplatin killing the same way; inactive = no consistent shift, or siRNA harmful alone
In all, the deposit lists about 23,000 reagents; shown is an unselected part. 455 of them (2%) count as active. 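Active includes both protection and sensitisation; some change values fall well beyond the stated -50 to +50 range.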 A number with no mark means an inactive call. Reagents against one gene are numbered here. Not given: the amount of reagent.

Target gene	reagent no.	two-siRNA summed score (-2 to +2)	mean protection from cisplatin (shift in death) (%)	protection from cisplatin (shift in death), siRNA C (%)	protection from cisplatin (shift in death), siRNA D (%)
LOC128208	1	0	4.2	7.3	1.1
PHLDB3	1	0	1.2	-3.6	6
ATG16L2	1	0	17.4	34.4	0.3
DLEC1	1	0	5.2	4.7	5.7
LOC390913	1	2 (active)	19	24.5	13.4
GLCCI1	1	1	9.8	6.9	12.8
DMTN	1	0	1.5	6.8	-3.9
LOC388830	1	0	5.1	-0.1	10.4
SLAIN2	1	0	10.3	10.8	9.9
SULT2B1	1	0	5.7	15.3	-3.9
LOC441230	1	0	-3.8	-4.5	-3.1
SLC39A2	1	0	7	10.1	3.9
TBC1D4	1	0	2.8	5.8	-0.1
LINC01996	1	1	18.2	17.1	19.4
NDUFA8	1	-1	-11	12	-34
GPRC6A	1	-1	-9.1	-8	-10.1
C7orf33	1	-1	-2.6	-10.8	5.6
PTAR1	1	0	6.9	7.9	5.8
MORF4	1	0	-0.6	-1.7	0.6
PPIAP43	1	0	8.1	6.5	9.8
ATF3	1	0	0.1	1.3	-1.1
LOC401545	1	0	21.7	24.5	19
LMBRD2	1	0	2	-5.8	9.9
DDHD2	1	0	0.6	-5.6	6.8
ADRA1B	1	-1	-11.3	-6.7	-15.9
SRP54	1	0	4.5	7.1	1.9
LGR4	1	0	-6.6	-4.9	-8.4
GAPDHS	1	-1	-7.7	-28.7	13.3
RBBP5	1	-1	-12.9	-5.1	-20.7
LOC442697	1	0	16.3	16.6	16.1
PROCA1	1	0	1	3.8	-1.8
LOC388419	1	0	0	8.6	-8.5
RPL7A	1	0	16.8	12.8	20.8
TBX6	1	0	17.9	17	18.9
E2F6P4	1	0	8.4	13.6	3.3
RARA	1	0	3.6	3.5	3.7
FAR2	1	0	16.2	15.7	16.6
MBL2	1	0	6.1	17.3	-5.1
LOC440860	1	0	5.8	0.1	11.6
LOC388760	1	1	12.5	24.5	0.5
LOC390006	1	0	16.3	11.7	20.9
ODC1	1	0	-1.4	-6.6	3.9
TNP2	1	0	-5.1	-6.3	-3.9
MOSMO	1	1	13.2	26.9	-0.6
GOLGA6L22	1	0	9.2	10	8.4
GOLGA6L22	2	0	13.7	8.5	18.9
LHFPL5	1	2 (active)	17.4	17.9	17
LOC400496	1	0	2.2	-1.6	6
SPPL2A	1	0	9.2	21.3	-2.8
ITPRIPL1	1	0	9.9	7.8	11.9
LOC389325	1	1	24.4	20	28.7
LOC401053	1	0	7	12.4	1.6
SLC39A8	1	0	4.3	12.2	-3.6
H1-0	1	0	0.7	2.1	-0.6
CRIM1	1	-2 (active)	-37.8	-29.9	-45.7
BEX3	1	0	-10.9	-25.4	3.6
LOC400125	1	1	11.5	16.2	6.8
PRR30	1	0	1.6	7.7	-4.4
LOC440497	1	1	7.4	-0.4	15.1
ABHD10	1	1	18.7	20.3	17.1
LOC285193	1	0	24.5	8.2	40.8
LOC440773	1	0	14.6	11	18.3
IFTAP	1	0	8	4.1	12
MPRIP	1	0	2.8	5.2	0.4
ICAM1	1	0	-3.6	2.7	-9.9
LOC442654	1	0	11.6	6.7	16.5
NME2	1	1	6.5	16.7	-3.7
LOC388338	1	0	5.9	5.6	6.3
MPI	1	-1	-7.6	-20.4	5.3
PCDHA9	1	-1	-10.3	-2	-18.6
FBLN5	1	0	0.9	1.4	0.4
STEAP1	1	0	-6.9	-3.3	-10.6
IL1RAPL1	1	0	-14.1	-25	-3.2
